The structures given here were assigned with low confidence; some may be wrong.
Experiments:
CXCR3 [1] = biological target: T1, CXCR3 (Homo sapiens, UniProt P49682); assay: CXCR3 Ca2+ mobilization (FLIPR), stable hCXCR3-CHO cell line, I-TAC stimulated; settings: read-out: Ca-ITAC; hCXCR3-CHO cells, I-TAC 100 nM stimulated Ca2+ response
CXCR3 [2] = biological target: T1, CXCR3; assay: Chemotaxis assay IP10, L1.2 recombinant cells expressing hCXCR3; settings: read-out: L1.2 chemotaxis IC50 (μM) IP10; L1.2 hCXCR3 cells, IP10 around 0.3 nM, 4 hours
CXCR3 [3] = biological target: T1, CXCR3; assay: Chemotaxis assay ITAC (CXCL11), L1.2-CXCR3 cells; settings: read-out: Chemotaxis/ITAC, 1 nM CXCL11 (I-TAC), 4 hours

Protein sequences, listed by entry. Tags and fused reporters are not part of them.
UniProt P49682, whole entry: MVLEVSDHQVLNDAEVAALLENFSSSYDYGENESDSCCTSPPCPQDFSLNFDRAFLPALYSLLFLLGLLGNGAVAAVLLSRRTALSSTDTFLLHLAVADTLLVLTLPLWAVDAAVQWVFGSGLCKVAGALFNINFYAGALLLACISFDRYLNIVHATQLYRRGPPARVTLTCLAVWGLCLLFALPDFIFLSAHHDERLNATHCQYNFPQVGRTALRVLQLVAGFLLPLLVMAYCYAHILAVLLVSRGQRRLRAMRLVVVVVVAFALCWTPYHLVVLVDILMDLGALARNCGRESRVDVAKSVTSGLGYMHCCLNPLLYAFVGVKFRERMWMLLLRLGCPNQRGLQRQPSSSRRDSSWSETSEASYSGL

IC50 (CXCR3 [1]) | IC50 (CXCR3 [2]) | IC50 (CXCR3 [3]) | SMILES
1900 nM |  |  | CCOc1ccc(S(=O)(=O)N(Cc2ccc(C(=O)NCCc3cccc(Cl)c3)cc2)Cc2cccnc2)cc1
30 nM | 0.05 µM | 170 nM | CCOc1ccc(S(=O)(=O)N(Cc2ccc(C(=O)NCC(O)c3ccccc3)cc2)Cc2cccnc2)cc1 (stereo not shown)

Reference: US20110028509A1, “Sulfonamides” (MERCK SERONO SA, priority 2008, published 2011)
